{
  "source": "paper doi:10.1101/2024.04.26.591323",
  "assay_in_all_cases": "pull-down",
  "key": {"[1]": {"molecular_target": "T1, TG2 (transglutaminase 2), His6-tagged (Homo sapiens) (UniProt P21980)", "T1 sequence (looked up, limits assumed)": "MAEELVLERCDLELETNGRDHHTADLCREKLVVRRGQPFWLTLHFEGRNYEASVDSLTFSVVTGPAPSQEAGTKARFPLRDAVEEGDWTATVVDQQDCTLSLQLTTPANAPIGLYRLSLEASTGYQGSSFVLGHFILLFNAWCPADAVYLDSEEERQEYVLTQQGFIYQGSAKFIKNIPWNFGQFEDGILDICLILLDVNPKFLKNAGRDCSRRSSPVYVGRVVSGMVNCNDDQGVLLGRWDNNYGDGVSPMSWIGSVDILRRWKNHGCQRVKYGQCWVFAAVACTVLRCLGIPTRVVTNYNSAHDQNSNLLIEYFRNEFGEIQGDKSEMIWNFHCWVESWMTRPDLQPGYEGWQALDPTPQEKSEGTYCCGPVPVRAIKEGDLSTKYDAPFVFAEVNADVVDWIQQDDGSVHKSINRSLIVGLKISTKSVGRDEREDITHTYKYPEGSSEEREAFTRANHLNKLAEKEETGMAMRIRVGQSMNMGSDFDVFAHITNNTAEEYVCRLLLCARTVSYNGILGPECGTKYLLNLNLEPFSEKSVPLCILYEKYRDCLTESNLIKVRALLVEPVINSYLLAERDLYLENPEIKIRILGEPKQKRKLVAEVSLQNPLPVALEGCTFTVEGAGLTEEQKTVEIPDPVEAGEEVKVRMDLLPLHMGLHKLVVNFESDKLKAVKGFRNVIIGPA", "settings": "0.5 mM GTPgS (closed TG2)"}, "[2]": {"molecular_target": "T2, endogenous TG2 (primary HUVEC extract) (Homo sapiens) (UniProt P21980)", "T2 sequence (looked up, limits assumed)": "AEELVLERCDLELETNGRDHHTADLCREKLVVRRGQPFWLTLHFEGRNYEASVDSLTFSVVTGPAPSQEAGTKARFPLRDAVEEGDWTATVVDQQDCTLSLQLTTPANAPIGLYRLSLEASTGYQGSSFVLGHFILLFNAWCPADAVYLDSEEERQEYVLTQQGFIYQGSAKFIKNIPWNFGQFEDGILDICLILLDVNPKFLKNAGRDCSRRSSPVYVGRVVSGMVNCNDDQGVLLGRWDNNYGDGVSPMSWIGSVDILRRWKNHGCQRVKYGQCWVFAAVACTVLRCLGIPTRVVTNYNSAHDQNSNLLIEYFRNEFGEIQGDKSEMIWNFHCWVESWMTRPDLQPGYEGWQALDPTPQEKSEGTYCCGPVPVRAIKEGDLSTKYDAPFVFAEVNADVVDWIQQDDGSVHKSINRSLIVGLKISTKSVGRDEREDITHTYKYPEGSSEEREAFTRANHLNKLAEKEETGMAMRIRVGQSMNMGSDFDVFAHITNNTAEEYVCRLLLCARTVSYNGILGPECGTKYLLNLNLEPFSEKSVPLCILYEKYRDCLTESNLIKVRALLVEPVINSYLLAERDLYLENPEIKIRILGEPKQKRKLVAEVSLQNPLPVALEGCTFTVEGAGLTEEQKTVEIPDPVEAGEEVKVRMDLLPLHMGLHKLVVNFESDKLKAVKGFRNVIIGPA", "settings": "200 ug extract protein; protein in an extract"}, "[3]": {"molecular_target": "T3, endogenous TG2 (immortalised HUVEC extract) (Homo sapiens) (UniProt P21980)", "T3 sequence (looked up, limits assumed)": "T2 sequence (looked up, limits assumed)", "settings": "200 ug extract protein; protein in an extract"}},
  "note": "Construct, isoform or probe ends are uncertain for at least one entry. For part of these data: Negatives hold for the conditions tested. Where a protein sequence is shown, tags need not be part of it. For part of these data: Results from cells or extracts need not show a direct contact.",
  "data": [
    {"sequence": "CCUGGUUUUUAAGGAGUGUCGCCAGAGUGCCGCGAAUGAAAAAC [43-mer RNA 3' End Biotin]", "values": [
      {"measurement": "binding result", "setting": "[1]", "value": "no binding"},
      {"measurement": "binding result", "setting": "[2]", "value": "binds"},
      {"measurement": "binding result", "setting": "[3]", "value": "binds"}
    ]}
  ]
}
